Measurements taken from patent publication US20110135662A1 (UCB, published 2011).
Changes are numbered by the printed parent chain. Results are given in words; binding and its absence hold for the method and conditions named. Some entries that bind do so weakly or less than the wild type.

Tests used:
[1] = target: T1, B11 mouse (Nav 1.7) PMTDEFKN (mouse); assay: peptide binding ELISA, biotinylated peptide on streptavidin
T1 sequence (peptide, biotinylated for the ELISA (p-0360); exact form not printed): PMTDEFKN

[2] = target: T2, B11 human (Nav 1.7) PMTEEFKN (human); assay: as above
T2 sequence (peptide, biotinylated for the ELISA (p-0360); exact form not printed): PMTEEFKN

[3] = target: T1, B11 mouse (Nav 1.7) PMTDEFKN (mouse); assay: peptide binding ELISA (FIG. 3I legend)
[4] = target: T2, B11 human (Nav 1.7) PMTEEFKN (human); assay: peptide binding ELISA (FIG. 3I legend)

Measured: binding

B1: CA167_00983 (antibody, rabbit IgG1, V domains shown)
VH: QSVEESGGRLVTPGTPLTLTCTVSGFSLSNYAMSWVRQAPGKGLEWIGIIGKSGSTAYASWAKGRFTISRTSTTVDLEITSPTTEDTATYFCVRFVLLWGPGTLVTVS
VL: AQVLTQTASPVSAAVGGTVTINCQSSQSVYKNNDLAWYQQKPGQPPKLLIYYASTLASGVSSRFKGSGSGTEFTLTISDAQCDDAATYYCLGSYDCSSADCNAFGGGTKVVVK
notes: Rabbit monoclonal from rabbit 3824
binds: all assays above

B2: CA167_01080 (antibody, rabbit IgG1, V domains shown)
VH: QSLEESGGRLVTPETPLTLTCTASGIDLSKWPMTWVRQAPGKGLEWIGIIGRSGSTNYASWAKGRFTISKTSTTVDLKMTSPTTEDTATYFCARGGSYYDLWGQGTLVTVS
VL: B1 VL with G17N, N22T, Y30W, A36S, P42L, G66A, E72Q, A80V, A86G, L91V
notes: as for B1
binds: all assays above
